# In doi:10.1101/2024.04.03.587821:
# Protein sequences, listed by entry. Tags and fused reporters are not part of them.
# UniProt Q15154: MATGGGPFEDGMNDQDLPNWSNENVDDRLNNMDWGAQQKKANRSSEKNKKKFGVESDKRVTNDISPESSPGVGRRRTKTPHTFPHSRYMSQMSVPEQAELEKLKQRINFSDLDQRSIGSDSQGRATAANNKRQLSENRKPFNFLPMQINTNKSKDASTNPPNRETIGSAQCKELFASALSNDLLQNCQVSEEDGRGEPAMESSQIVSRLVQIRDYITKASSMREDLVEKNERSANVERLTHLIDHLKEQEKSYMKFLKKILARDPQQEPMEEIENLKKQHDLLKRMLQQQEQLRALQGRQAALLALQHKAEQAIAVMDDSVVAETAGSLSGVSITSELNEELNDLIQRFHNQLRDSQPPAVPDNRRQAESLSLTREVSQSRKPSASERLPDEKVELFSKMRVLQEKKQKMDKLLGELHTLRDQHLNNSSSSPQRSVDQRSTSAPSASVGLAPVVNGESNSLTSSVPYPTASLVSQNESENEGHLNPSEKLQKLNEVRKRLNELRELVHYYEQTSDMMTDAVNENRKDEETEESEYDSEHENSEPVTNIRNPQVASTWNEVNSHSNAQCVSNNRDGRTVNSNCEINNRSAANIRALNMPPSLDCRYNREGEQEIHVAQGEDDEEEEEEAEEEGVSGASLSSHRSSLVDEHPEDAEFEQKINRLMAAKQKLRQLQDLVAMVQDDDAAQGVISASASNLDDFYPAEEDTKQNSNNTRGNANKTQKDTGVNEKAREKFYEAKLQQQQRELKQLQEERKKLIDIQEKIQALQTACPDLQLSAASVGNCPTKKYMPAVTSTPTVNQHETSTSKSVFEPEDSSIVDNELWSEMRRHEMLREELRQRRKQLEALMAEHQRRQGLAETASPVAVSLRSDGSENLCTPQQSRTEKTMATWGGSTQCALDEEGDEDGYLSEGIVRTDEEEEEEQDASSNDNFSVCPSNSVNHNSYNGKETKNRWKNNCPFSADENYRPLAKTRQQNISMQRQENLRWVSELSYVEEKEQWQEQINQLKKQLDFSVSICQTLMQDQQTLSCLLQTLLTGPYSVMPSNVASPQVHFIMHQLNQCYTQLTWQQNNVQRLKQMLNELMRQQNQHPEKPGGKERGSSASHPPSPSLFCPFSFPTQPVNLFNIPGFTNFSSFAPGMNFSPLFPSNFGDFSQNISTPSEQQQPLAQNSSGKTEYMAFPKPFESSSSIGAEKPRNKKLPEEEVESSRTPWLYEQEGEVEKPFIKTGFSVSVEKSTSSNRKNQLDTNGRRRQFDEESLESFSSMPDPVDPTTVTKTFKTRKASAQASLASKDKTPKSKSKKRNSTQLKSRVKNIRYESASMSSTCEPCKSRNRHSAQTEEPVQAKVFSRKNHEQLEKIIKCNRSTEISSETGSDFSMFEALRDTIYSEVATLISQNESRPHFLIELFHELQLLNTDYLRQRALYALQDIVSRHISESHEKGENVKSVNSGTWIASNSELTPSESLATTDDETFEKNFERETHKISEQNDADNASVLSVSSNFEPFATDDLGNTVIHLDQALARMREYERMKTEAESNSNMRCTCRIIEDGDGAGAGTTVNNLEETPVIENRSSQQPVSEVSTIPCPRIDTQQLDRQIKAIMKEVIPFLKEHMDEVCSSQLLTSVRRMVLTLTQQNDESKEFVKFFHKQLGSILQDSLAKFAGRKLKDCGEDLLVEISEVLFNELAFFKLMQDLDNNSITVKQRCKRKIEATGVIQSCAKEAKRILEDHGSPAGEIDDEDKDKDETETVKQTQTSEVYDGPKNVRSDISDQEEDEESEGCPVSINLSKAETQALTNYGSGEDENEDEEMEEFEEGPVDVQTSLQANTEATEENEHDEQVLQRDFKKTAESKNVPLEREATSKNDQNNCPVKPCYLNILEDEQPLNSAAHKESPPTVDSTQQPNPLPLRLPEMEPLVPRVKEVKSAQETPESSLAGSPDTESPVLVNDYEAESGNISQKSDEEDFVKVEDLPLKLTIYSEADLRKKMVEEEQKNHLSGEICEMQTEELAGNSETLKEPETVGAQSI
# No constants are given. Whether binding was seen depends on the method and setting. For some assays here: In cells and extracts the contact can be indirect. Some binding calls cover weakened binding; strength is not graded here. Tags and fused reporters may be left off the sequences shown.
# Key:
# [1] = biological target: T1, eGFP-FKBP-Kif9 (relocalizable form of Kif9) (human) (UniProt Q9HAQ2); experiment: knock-sideways relocalisation
# T1 sequence: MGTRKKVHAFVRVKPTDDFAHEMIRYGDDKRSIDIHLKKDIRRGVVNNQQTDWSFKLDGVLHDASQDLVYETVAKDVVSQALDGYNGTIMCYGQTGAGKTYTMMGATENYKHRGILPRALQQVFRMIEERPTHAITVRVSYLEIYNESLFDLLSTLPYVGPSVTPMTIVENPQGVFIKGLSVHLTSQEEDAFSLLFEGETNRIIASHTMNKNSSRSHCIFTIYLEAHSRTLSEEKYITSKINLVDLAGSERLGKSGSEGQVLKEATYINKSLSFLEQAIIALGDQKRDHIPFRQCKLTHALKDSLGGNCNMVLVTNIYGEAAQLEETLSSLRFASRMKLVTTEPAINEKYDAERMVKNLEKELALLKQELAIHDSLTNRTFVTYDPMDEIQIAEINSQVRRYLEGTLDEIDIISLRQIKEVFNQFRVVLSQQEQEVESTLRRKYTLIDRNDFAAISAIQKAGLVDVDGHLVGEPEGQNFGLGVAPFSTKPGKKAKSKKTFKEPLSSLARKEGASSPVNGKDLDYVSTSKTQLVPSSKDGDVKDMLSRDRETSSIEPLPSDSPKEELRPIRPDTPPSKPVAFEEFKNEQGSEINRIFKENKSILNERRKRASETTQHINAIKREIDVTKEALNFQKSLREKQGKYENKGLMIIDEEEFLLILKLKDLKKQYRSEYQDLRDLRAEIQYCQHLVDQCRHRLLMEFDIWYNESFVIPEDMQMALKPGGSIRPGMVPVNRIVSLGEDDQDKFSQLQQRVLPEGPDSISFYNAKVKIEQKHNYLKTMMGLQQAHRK
# [2] = biological target: T2, eGFP-Kif9 (HeLa cells transfected with the eGFP-Kif9 plasmid) (human) (UniProt Q9HAQ2); experiment: co-IP
# T2 sequence: T1 sequence
substance,measurement,setting,value
"PCM1 (endogenous, HeLa) (from UniProt Q15154 1-2024)",binding,[1],binds
same,binding,[2],binds
